Data as given in article PMC4230746.
These are yes or no findings as the source states them, for the method shown. In cells and extracts the contact can be indirect. Some binding calls cover weakened binding; strength is not graded here. Sequences can lack the tags named with a protein. Blank lines part the entries; values can stand above or below the binder they belong to.

By UniProt entry, the sequences of proteins in these tests, tags left out.
UniProt Q92355: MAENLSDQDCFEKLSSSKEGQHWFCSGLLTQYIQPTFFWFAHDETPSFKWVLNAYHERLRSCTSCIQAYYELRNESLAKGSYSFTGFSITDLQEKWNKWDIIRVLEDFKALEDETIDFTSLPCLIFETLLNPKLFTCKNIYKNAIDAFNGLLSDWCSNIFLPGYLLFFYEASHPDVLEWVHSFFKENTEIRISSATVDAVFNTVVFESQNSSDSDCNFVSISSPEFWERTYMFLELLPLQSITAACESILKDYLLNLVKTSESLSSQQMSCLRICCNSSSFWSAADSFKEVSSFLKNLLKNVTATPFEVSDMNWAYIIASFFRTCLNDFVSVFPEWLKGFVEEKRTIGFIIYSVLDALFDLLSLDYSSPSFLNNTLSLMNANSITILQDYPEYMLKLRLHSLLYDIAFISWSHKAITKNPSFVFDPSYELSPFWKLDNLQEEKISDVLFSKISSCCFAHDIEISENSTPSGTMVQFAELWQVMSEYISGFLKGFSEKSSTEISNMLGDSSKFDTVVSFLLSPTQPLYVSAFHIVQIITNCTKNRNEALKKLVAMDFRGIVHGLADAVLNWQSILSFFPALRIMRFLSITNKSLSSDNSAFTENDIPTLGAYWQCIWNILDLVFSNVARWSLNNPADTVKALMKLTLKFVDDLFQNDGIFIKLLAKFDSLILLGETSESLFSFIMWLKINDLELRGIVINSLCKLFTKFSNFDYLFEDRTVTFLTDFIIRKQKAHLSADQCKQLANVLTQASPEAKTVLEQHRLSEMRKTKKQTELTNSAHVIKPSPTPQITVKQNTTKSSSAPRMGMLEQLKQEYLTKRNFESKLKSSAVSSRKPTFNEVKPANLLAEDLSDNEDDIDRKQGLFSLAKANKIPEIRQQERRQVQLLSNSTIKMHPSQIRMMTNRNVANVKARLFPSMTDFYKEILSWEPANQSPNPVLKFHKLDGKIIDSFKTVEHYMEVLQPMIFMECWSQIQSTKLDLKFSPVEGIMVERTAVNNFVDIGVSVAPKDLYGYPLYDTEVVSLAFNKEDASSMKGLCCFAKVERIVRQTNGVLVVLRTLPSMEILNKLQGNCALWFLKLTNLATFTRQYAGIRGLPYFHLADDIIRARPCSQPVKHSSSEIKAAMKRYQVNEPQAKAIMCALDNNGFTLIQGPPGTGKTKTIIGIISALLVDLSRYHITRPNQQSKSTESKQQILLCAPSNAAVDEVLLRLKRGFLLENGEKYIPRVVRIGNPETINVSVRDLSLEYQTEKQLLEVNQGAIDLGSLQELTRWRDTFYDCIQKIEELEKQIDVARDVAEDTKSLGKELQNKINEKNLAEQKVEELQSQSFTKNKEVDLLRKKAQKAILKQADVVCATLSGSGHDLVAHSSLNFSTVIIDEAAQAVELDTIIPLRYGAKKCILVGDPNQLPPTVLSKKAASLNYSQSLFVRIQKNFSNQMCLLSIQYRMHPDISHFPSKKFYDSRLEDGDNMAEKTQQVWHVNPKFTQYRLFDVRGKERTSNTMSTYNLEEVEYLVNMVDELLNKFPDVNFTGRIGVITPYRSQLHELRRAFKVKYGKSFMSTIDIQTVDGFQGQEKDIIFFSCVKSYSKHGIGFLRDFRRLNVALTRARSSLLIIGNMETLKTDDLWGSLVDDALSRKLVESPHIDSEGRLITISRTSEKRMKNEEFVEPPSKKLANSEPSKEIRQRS

Molecular target: Flag-tagged Sen1 (fission yeast (Schizosaccharomyces pombe)) (UniProt Q92355)
Assay: co-IP; Flag IP of Flag-tagged Sen1 from whole cell extracts of fission yeast strains; western blot of WCE and immuno-precipitated material

- binding: no binding
B1: myc-tagged TFIIIC component Sfc6 (protein, UniProt O60174 1-582)
chain: MGPKSKEYENPSSYKNDEDNDDDGDFVLENVMSEEDIEIETPSRNRKRVSTTRRTPSKPIRSQPLTPSSSKGAGNEPKSQNSSTTRGSAKKQSSKGLEEKLINSYGTHVESLNKGRRLIEIWKYYETAPGQSSFEGQTSSDSKLQTLLNLDGQQLLSYSENPFYLFEVKNLSISFHFESPQQVEPCQPVNPFKENPQKSGFVVNTGIPLSSVSWLPTNKETQFLAVGGMLKFSETTESVFMRTSGRNQIQLWKLENKTNFKSEFILYHDWGSVLQLEWCPTISVEDSILGFLAVVCSDGKLRVLRVPRSPVKFHVFVEQADFTFGFNDSLISCCTWVSPEHGDIHQILVGCSNGYLALWDILSSQECPLFYIPYHDSYIHNVVQCLDDFPWLFLTTAFDCYTRIFDIRDPIIDNRPLSHKRDICYTITWNNMLQSIISCSESQSVVIESLRGTSTQLLDERNGSIISLSNSKFHPFVACAASDGIVTIVNPFRLLGFSHKQKANVHRIFQLEYSEKQDSYRMLDGFRPRLPKAKKLDMYIYPWQIQVNKVEWNGNKGYAGWLASGMACGILRVEDLSAVERR

- binding: binds
B2: Myc-tagged Rpc25 (protein, UniProt O94285 1-203)
chain: MFLLSRFSDIISIHPSNFWKPTKEALAEEIHKKYANKVIQNIGLAICVYDFLKIGEGIIKYGDGSSYMNVVFRLIIFRPFRGEVMLGKIKSCSEEGIRVTISFFDDIFIPKDMLFDPCVFRPDERAWVWKIEGEDGSEGTELYFDIDEEIRFQIESEDFVDISPKRNKNATAITGTEALESVSPYTLIASCSRDGLGIPAWWK
